The results in this text go back to paper doi:10.1101/102806.

The chains behind the UniProt entries cited, without tags or fusion partners.
UniProt P52297: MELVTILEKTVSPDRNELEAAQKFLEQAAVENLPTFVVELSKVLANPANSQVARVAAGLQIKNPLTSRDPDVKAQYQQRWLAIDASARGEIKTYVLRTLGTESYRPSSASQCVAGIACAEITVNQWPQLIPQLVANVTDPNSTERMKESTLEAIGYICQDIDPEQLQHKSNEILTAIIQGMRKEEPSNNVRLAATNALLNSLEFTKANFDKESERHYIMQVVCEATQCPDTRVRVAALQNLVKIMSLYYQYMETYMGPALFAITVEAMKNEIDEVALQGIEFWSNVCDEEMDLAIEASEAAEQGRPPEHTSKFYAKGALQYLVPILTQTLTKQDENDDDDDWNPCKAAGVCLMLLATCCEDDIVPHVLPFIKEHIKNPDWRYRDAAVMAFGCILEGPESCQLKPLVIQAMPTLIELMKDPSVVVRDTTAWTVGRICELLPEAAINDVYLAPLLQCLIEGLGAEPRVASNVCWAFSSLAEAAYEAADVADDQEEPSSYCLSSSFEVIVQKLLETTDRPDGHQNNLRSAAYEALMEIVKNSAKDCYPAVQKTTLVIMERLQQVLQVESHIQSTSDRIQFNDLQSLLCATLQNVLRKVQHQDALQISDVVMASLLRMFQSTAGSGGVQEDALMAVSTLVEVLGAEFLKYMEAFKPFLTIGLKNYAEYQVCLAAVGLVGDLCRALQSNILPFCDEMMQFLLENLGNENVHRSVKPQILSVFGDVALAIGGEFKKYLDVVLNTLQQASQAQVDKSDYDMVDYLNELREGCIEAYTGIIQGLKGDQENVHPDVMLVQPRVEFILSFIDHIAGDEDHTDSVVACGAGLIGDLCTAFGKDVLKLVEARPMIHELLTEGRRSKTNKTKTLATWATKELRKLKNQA

The target in this assay is importin-β, endogenous (Xenopus laevis (endogenous in Xenopus egg extract)) (UniProt P52297). The assay is described as follows: pull-down.

Results are given in words; binding and its absence hold for the method and conditions named. Binding seen in cells or lysates may run through a third protein. Some binding calls cover weakened binding; strength is not graded here.

B1: TPX2 (Targeting protein for Xklp2-A), endogenous (protein, UniProt Q6NUF4 1-716)
chain: MEDTQDTYSYDAPSIFNFSSFHEDHNADSWFDQVTNAENIPPDQRRLSETSVNTEQNSKVEPVQTTPSKDDVSNSATHVCDVKSQSKRSSRRMSKKHRQKLLVKMKDTHLEKETAPPEYPPCKKLKGSSSKGRHAPVIKSQSTSSHHSMTSPKPKAQLTMPSTPTVLKRRNVLVKAKNSEEQELEKMQELQKEMLENLKKNEHSMKVAITGAGQPVKTFIPVTKPVDFHFKTDDRLKRTANQPEGDGYKAVDFASELRKHPPSPVQVTKGGHTVPKPFNLSKGKRKHEEASDYVSTAEQVIAFYKRTPARYHLRSRQREMEGPSPVKMIKTKLTNPKTPLLQTKGRHRPVTCKSAAELEAEELEMINQYKFKAQELDTRILEGGPVLLKKPLVKEPTKAIGFDLEIEKRIQQREKKEEIEEETFTFHSRPCPSKMLTDVVGVPLKKLLPVTVPQSPAFALKNRVRIPAQEEKQEEMVPVIKATRMPHYGVPFKPKLVEQRQVDVCPFSFCDRDKERQLQKEKRLDELRKDEVPKFKAQPLPQFDNIRLPEKKVKMPTQQEPFDLEIEKRGASKLQRWQQQIQEELKQQKEMVVFKARPNTVVHQEPFVPKKENRSLTESLSGSIVQEGFELATAKRAKERQEFDKCLAETEAQKSLLEEEIRKRREEEEKEEISQLRQELVHKAKPIRKYRAVEVKASDVPLTVPRSPNFSDRFKC
Consider B1, for which the binding result is listed as “binds”.
